Results: the supplement of paper PMC10338343
± gives the standard deviation. The list shows a part of the results, in another mix than the full data. Many of these values have a large error.

Tested on: MIWI (PIWIL1) piRISC loaded with Kctd7 piRNA (30 nt)
Assay: pre-steady-state target cleavage rate (min^-1); MIWI and MILI are mouse PIWI proteins and EfPiwi is from a freshwater sponge; tags in brackets are library labels; higher = faster piRNA-guided slicing of the target
Conditions: guide: Kctd7 piRNA 5'p-UGUUAAUCUCUCAGAGAAGGUGACAGUGAU; auxiliary factor: 500 nM mouse GTSF1
Procedure, shortened: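 A transcribed, DNA-blocked target RNA library (0.1 nM) and 1 nM active affinity-purified piRISC bearing one synthetic guide were incubated in HEPES–potassium acetate buffer at 33 °C for 0–8 or 0–960 min, either with or without 500 nM GTSF1 partner protein. Uncleaved targets were sequenced, normalised to depth and to weakly complementary targets, and pooled over three trials, with k3 capped at 0.0001 min^-1. The pre-steady-state cleavage rate was derived with a burst-and-steady-state fit.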

Sequence	pre-steady-state target cleavage rate
UAGUCUGUGUGCUUCUCUGAGAGAUUAUGA	0.000271 ± 0.018
UAGUCUGUCAACUUCUCUGAGAGAUUAACA	0.593 ± 0.024
UAGUGACAGUGGAAGAGACUCUCAUUAACU [g2:g7:cont:t1U]	0.000135 ± 0.029
UAGUGAGUCACCUUCUCUCUGAGAUUAAGA	0.00175 ± 0.0049
UACACUGUCACCUUCUCAGAGAGAAUAACA	0.076 ± 0.021
AUCACUGUCAACUUCUCUGAGAGAUUAACA	0.793 ± 0.045
AUCACAGUCACGUUCUCUGAGAGAUUAACA	0.737 ± 0.026
UAGUGACACACCUUCUCUGAGUCUAAUUGA [g10:g22:cont:t1A]	0.000462 ± 0.014
UAGUCUGUCACGAACUCUGAGAGAUUAAGA	0.000824 ± 0.0069
UAGUGACUCACCAAGUCUGAGAGAUUAAGA	0.000493 ± 0.0091
UAGUGACAGUGCUUCUCUGAGGAUUAACA	0.000231 ± 0.008
UAGUGUGACACCUUCUCUGAGAGAUUAUGA	0.0202 ± 0.0074
UAGUGACAGACCUUCUCUGAGUCUUUUUGA	0.000663 ± 0.014
UAGUGACUCACCUACUCUGAGAGAUAUUGA	0.000944 ± 0.0069
UAGUGUGUCACCUUCUCACAGAGAUUUUGA	0.00194 ± 0.0065
UAGUGACACACGUUCUCUGAGAGAUAUUGA	0.00031 ± 0.018
UAGUGACAGUGGAAGAGAGCGAGAUUAACA	0.000206 ± 0.024
AUCACUGUCAGCUUCUCUGAGAGAUUAACA	0.802 ± 0.044
UAGACUCAGACCUUCUCUGAGAGAUAUUGA	0.00205 ± 0.0038
UAGUGACAGACCUUCUUCUGAGAGAUUAACA	0.00151 ± 0.0068
UAGUGACAGUGCUUCUCUGAGAGAUAUUCA	0.000115 ± 0.015
UAGUGACUCACCUUCUCUCAGAGAUUUUGA	0.000582 ± 0.014
UAGUGACAGACCUUCUCUGAGACAUUAAGA	0.00104 ± 0.0096

Sequence	pre-steady-state target cleavage rate
UAGACUGUCACCUUGUCUGAGAGAUUAUCA	0.643 ± 0.1
UAGUGACAGUCCUUCUCUGAGAGAUUACA	0.00199 ± 0.0038
UAGUGACAGUCCUACUCUCAGAGAUUAACA	0.000104 ± 0.019
UUCACCUGUCACCUUCUCUGAGAGAUUAACA	0.73 ± 0.033
UACACUGUCUGGUUCUCUGAGAGAUAUUGA	0.000476 ± 0.016
UAGUGACAGUCCUUCUCUCAGAGUUUAACA	0.00172 ± 0.004
UAGUGACACACCUUCUCUGACGAGAUUAACA	0.00152 ± 0.005
UACACUGUCACCUUCUCUGAGUCAUUAUGA	0.00293 ± 0.0042
UAGUGACAGACCUUGUCUGACAGAUUAACA	0.00217 ± 0.0056
UAGUGACAGUCCAAGUCUGAGAGAUUAAGA	0.000196 ± 0.038
UAGUGACUCACCUUCUCUGAGUGAUUAUGA	0.00131 ± 0.0049
UAGUGACAGUCCUUCUCUGAGACAUAAACA	0.000125 ± 0.025
UAGUCUGUGACCUUCUCUGAGAGAUAUUGA	0.00311 ± 0.0039
UAGUGUGUCACCUUCUCUGUCUGAUUAACA	0.000922 ± 0.011
UAGACUGUCACCUUCUCUGAGACAUUAUGA	0.00121 ± 0.0048
UAGUGACAGUGCUUCGUCUGAGAGAUUAACA	0.00121 ± 0.0066
UAGUGUGUCACCUUCUCUGUCAGAUUUUGA	0.000593 ± 0.022
UAGUGACAGACCAAGUCUGAGAGAUUAUGA	0.000595 ± 0.017
AACACUGUCACCUUCUCUGAGAGAUUAUGA	0.101 ± 0.021
UAGUGACAGUGCUUCUGUGAGAGUUUAACA	0.00298 ± 0.0033
UAGUGACAGUGGAACUCUGAGAGCUUAACA	0.000102 ± 0.044
UACACUGUCACUUCUCUGAGAGAUUAACA	0.577 ± 0.038
UAGUGACACACCUUCACUGAGACAUUAACA	0.17 ± 0.029

A second format for some results above.
Sequence | pre-steady-state target cleavage rate
AUCACUGUCAACUUCUCUGAGAGAUUAACA | 0.793 ± 0.045
AUCACAGUCACGUUCUCUGAGAGAUUAACA | 0.737 ± 0.026
UAGUGACACACCUUCUCUGAGUCUAAUUGA [g10:g22:cont:t1A] | 0.000462 ± 0.014
UAGUCUGUCACGAACUCUGAGAGAUUAAGA | 0.000824 ± 0.0069
UAGUGACUCACCAAGUCUGAGAGAUUAAGA | 0.000493 ± 0.0091
UAGUGACAGUGCUUCUCUGAGGAUUAACA | 0.000231 ± 0.008

(listing goes on)

Sequence	pre-steady-state target cleavage rate
UAGUGAGUCACCUUCUCUGAGACAUUAAGA	0.00377 ± 0.005
UACACUGUCACCUUCACUGAGAGUUUAACA	0.356 ± 0.081
UAGUGACAGUCCUUCUCUGAGAGAUUAUGA	0.00211 ± 0.0048
UAGUGACAGUGGAAGAGACAGAGAUUAACC [g2:g11:cont:t1C]	0.000233 ± 0.031
UAGUGACAGACCAUCUCUGAGAGAUUAUGA	0.000967 ± 0.0063
UAGUGACAGACCUUCUCUGAGUCAUUAACA	0.00161 ± 0.0047
UAGACUGUCACCUGCUCUGAGAGAUUAACA	0.77 ± 0.043
UAGUGAGUCACGUUCUCUGAGAGAUAUUGA	0.00276 ± 0.0042
UAGUGACAGACCUUCUCGUGAGAGAUUAACA	0.000564 ± 0.019
UUCGACUGUCACCUUCUCUGAGAGAUUAACA	0.859 ± 0.06
UAGUGACAGACCUUCUCUGACAGAAUAACA	0.00215 ± 0.006
UACACUGUCACCUUCUCUCUCAGAUUAUGA	0.00204 ± 0.009
UAGUGACAGACCUUCUCUGAGUCUUUAACA	0.000457 ± 0.02
UACACGUCACCUUCUCUGAGAGAUUAACA	0.737 ± 0.043
UAGUGACAGUGCUACUGUGAGAGAUUAACA	0.000326 ± 0.016
UAGUGACUCACCUUCUCUGACUCAUUAAGA	0.000166 ± 0.019
UAGUCUGUCAGCUUCUCUGAGAGAUUUUGA	0.00234 ± 0.0039
UAGUCUGUCACCUUGACUGAGAGAUUAAGA	0.00338 ± 0.0035
UAGUGACAGUGGAUCUCUGAGAGAUUAACA [g2:g17:cont:t1A]	0.00112 ± 0.004
UAGUGACAGACCUUCUGACUCUCUAAUUGA [g15:g21:cont:t1A]	0.000455 ± 0.018
UUCUCUGUCAGCUUCUCUGAGAGAUUAACA	0.586 ± 0.028
AUCUGAGUCACCUUCUCUGAGAGAUUAACA	0.652 ± 0.053
UAGUGAGUCACCUUCUCUGUCAGAUUUUGA	0.00154 ± 0.009

Sequence	pre-steady-state target cleavage rate
UAGUGACAGUGGAAGAGACAGAGAUUUACA	0.000272 ± 0.019
UAGUGUGUCACCUUCUCACAGAGAUUAUGA	0.00137 ± 0.0092
UAGUGACAGACCUUCAGUGAGAGAUUAACA	0.00196 ± 0.0067
UAGUGACAGUGCAUCUCUGAGAGAUUAACA	0.000816 ± 0.0075
UAGUGACUCACCUUCUCUAGAGAGAUUAACA	0.000506 ± 0.018
UAGUGACACACCUUCUCUGUCAGAUUAACA	0.00228 ± 0.0046
UAGUGACAGUCCUUCUCUGAGCAGAUUAACA	0.00168 ± 0.0041
UACACUGUCACCUUGUCUGAGAGAUUAACA	0.355 ± 0.042
UAGACUGUCACCUUCUCUGAGACUUUAACA	0.00296 ± 0.0033
UUCAGUGUCACCUUCUCUGAGAGAUUUUGA	0.161 ± 0.043
UAGUGUGUGUGCUUCUCUGAGAGAUUAUGA	0.00181 ± 0.0053
UAGUGACUCACCUUCAGUGAGAGAUUUUGA	0.000481 ± 0.013
UAGUGACAGUCCUUCUCGGAGAGAUUAACA	0.00251 ± 0.0037
UAGUGACAGUCCUUCUCACAGAGAUUAUGA	0.000478 ± 0.018
UAGUGUGUCACCUUCAGAGAGAGAUUAAGA	0.00227 ± 0.0073
UUCACAGUCACCUUCUGUGAGAGAUUAACA	0.363 ± 0.035
UUCACUGUCACCUUCUCUGAGACUAAUUGA	0.00193 ± 0.0032
UUCACUGUGCACCUUCUCUGAGAGAUUAACA	0.606 ± 0.05
UAGUGUGUCACCUUCUCUGACAGAUAUUGA	0.00135 ± 0.0084
UAGUGACACACCAAGUCUGAGAGAUUAACA	0.00224 ± 0.0051
UAGACUGUCACCUUCUCUGAGGGAUUAACA	0.741 ± 0.051
